These are yes or no findings as the source states them, for the method shown. In cells and extracts the contact can be indirect. Some results given as binding are weak or reduced against the parent protein; the word gives no strength.
Tests used:
[1] = molecular target: GRP75 (mouse (endogenous in primary hepatocytes)) (UniProt P38647); assay: proximity ligation; Duolink in situ PLA on fixed, permeabilised primary hepatocytes of WT, hKO and hKI mice after PHx; primary antibodies to VDAC1, GRP75, IP3R1; confocal microscopy
[2] = molecular target: T1, SDHB (mouse (endogenous in primary hepatocytes)) (UniProt Q9CQA3); assay: co-IP; whole-cell extracts (1% dodecyl maltoside) of primary hepatocytes of WT and hKO mice after PHx; antibody cross-linked to protein A/G agarose, overnight at 4 °C (results: by SDHB; methods: SDHA antibody)
T1 sequence: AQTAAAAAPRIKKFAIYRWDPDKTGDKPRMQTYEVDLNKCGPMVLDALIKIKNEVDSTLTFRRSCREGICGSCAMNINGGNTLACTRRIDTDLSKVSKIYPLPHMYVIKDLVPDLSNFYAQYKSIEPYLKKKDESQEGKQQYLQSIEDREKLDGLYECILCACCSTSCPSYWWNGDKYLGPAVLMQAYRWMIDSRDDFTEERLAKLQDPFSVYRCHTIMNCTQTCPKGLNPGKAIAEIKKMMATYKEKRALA

Protein sequences, listed by entry. Tags and fused reporters are not part of them. Residues count along the entry.
UniProt P38647, residues 47-679: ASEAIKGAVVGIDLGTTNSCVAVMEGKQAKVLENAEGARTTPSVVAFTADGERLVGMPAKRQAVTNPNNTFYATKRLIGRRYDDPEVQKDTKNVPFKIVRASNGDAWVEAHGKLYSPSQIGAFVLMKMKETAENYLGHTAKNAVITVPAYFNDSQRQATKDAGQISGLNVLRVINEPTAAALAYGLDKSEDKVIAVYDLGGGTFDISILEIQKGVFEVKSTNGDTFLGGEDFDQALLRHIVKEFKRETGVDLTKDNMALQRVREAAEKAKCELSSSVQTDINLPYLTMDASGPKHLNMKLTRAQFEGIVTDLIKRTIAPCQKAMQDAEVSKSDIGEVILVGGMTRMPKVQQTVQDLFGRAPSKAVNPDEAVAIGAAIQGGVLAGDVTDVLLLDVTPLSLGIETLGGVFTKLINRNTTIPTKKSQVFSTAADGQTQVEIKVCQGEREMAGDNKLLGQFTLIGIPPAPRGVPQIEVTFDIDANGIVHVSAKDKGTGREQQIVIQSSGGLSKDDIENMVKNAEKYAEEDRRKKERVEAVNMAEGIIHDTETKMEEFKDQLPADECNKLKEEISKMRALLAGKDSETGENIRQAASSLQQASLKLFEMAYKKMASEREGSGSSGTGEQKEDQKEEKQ
UniProt P11881: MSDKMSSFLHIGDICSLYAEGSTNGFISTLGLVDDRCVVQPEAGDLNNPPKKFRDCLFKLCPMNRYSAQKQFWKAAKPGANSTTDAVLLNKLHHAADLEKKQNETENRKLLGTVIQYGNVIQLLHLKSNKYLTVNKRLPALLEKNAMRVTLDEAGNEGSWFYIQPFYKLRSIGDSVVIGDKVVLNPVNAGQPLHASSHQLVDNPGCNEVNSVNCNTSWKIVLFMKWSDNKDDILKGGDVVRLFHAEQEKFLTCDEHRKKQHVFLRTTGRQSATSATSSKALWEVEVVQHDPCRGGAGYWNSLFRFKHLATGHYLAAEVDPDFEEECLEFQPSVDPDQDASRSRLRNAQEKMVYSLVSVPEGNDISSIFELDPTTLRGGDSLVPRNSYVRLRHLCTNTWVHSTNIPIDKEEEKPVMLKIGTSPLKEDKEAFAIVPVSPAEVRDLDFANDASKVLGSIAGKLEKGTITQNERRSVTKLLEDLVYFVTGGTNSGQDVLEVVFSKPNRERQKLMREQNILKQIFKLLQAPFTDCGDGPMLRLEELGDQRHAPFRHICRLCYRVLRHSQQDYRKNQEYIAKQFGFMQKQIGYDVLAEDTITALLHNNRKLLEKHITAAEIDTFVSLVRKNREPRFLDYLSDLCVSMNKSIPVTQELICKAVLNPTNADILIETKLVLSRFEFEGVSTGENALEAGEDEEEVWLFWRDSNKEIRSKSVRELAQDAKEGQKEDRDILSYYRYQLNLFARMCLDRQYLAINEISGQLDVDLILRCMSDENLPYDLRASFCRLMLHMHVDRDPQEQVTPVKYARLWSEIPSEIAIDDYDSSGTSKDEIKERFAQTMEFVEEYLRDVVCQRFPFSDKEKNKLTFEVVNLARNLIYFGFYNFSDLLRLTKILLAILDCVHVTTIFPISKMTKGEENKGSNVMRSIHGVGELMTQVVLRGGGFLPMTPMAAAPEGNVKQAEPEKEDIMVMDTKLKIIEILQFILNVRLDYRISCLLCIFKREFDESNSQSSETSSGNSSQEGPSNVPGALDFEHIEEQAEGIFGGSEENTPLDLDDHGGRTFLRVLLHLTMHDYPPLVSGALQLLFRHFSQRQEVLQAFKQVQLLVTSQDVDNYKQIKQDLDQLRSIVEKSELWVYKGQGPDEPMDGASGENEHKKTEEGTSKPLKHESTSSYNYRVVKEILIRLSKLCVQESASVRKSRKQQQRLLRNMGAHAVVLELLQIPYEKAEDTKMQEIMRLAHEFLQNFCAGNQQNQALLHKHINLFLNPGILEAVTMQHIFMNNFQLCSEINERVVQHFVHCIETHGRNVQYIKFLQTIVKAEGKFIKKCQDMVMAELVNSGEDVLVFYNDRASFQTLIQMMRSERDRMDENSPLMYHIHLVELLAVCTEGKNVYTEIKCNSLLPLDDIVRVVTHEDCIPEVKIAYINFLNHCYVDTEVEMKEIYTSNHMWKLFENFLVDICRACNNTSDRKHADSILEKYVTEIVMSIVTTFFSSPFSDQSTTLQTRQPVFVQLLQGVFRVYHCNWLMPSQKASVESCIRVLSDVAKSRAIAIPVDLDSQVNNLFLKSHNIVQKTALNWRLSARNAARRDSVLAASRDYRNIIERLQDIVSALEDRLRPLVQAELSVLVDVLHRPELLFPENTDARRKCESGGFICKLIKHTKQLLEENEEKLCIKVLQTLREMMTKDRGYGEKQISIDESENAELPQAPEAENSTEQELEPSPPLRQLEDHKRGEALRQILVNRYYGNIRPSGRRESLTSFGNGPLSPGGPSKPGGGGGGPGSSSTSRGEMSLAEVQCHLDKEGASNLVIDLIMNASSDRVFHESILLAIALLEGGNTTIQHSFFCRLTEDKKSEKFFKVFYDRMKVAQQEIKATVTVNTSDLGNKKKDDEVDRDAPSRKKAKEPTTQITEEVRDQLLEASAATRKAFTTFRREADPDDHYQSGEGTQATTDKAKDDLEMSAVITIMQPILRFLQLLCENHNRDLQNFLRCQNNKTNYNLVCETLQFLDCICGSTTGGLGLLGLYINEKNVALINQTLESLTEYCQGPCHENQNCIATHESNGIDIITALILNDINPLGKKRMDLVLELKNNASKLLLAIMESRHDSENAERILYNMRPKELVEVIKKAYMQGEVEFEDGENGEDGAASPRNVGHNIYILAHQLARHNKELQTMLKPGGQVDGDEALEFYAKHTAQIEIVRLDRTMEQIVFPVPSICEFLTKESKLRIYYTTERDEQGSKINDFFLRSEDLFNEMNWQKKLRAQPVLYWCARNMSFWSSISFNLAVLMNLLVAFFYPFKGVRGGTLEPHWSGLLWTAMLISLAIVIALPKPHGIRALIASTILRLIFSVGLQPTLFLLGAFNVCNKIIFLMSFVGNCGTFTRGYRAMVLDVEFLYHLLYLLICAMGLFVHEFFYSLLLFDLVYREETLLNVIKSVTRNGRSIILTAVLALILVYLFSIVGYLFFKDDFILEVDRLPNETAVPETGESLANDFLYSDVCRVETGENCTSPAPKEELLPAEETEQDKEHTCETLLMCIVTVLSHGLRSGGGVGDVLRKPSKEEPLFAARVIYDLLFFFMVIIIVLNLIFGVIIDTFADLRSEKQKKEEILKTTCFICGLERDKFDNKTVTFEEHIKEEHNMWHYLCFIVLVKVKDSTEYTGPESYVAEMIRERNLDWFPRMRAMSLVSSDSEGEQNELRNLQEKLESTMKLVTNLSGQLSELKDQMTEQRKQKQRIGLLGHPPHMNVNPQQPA
UniProt Q8K2B3, residues 43-664: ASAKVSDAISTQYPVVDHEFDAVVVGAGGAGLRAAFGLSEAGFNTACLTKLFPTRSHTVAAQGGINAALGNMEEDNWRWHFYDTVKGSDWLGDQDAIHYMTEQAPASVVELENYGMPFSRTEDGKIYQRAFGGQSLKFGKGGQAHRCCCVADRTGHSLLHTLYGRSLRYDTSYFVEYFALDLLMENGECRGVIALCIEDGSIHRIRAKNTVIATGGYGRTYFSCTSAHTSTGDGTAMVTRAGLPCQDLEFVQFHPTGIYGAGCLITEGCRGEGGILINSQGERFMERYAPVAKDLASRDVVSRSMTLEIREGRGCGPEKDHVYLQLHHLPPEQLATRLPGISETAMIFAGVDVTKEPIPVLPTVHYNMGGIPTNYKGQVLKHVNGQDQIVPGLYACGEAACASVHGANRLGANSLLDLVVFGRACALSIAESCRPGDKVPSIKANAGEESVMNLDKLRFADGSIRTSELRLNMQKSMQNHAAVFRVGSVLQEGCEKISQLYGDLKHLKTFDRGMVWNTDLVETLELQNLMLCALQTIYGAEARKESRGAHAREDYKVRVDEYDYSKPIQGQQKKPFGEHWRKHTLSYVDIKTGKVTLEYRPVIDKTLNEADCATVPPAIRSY

Row | Substance | binding [1] | binding [2]
1 | IP3R1 (from UniProt P11881 1-2749) (receptor) | binds | 
2 | SDHA (from UniProt Q8K2B3 43-664) (enzyme) |  | binds

Reference: publication PMC12679573
